Results: the supplement of paper PMC10849652
The list shows a part of the results.

By UniProt entry, the sequences of proteins in these tests, tags left out. Where a name states a change or a piece, a line headed by the entry shows the natural chain unless it says otherwise.
UniProt O00139: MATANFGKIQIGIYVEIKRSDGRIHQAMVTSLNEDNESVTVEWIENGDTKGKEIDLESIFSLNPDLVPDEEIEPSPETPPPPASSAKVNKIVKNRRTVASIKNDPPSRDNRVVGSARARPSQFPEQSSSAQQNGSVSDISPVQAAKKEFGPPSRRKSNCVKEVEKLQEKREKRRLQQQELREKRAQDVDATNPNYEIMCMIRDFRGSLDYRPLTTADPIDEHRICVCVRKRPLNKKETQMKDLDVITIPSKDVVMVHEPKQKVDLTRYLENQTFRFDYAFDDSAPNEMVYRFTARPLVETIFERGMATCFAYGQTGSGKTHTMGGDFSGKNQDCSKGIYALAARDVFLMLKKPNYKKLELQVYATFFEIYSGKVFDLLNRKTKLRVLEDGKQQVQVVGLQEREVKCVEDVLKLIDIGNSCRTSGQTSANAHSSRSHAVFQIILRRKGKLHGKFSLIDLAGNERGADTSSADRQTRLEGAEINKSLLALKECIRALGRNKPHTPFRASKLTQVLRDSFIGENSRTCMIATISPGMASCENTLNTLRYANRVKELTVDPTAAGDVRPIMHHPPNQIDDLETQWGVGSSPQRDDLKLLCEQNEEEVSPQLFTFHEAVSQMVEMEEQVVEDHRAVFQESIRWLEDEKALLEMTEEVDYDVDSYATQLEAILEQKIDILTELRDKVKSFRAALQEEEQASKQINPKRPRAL
UniProt Q9Y597: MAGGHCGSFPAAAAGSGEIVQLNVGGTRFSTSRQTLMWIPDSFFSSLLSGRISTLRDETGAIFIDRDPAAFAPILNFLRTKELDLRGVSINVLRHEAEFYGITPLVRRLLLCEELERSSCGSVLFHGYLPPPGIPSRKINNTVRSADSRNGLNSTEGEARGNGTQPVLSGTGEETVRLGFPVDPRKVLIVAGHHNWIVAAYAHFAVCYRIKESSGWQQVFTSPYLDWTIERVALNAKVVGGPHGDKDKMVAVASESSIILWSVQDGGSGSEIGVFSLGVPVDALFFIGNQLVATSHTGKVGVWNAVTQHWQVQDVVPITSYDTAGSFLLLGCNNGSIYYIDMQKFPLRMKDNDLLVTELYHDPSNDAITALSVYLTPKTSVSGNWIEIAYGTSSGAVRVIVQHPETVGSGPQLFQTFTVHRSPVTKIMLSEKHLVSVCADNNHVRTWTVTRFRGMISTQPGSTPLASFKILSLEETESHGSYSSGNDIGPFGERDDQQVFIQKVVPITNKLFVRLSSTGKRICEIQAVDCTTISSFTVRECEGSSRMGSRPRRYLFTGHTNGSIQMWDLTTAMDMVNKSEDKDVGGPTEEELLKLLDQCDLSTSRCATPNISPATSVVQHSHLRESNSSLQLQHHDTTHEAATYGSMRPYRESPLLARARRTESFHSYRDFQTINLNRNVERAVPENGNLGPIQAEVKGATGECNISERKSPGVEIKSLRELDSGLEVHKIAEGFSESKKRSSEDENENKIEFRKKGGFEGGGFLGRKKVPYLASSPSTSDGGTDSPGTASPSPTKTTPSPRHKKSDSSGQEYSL
UniProt Q06136: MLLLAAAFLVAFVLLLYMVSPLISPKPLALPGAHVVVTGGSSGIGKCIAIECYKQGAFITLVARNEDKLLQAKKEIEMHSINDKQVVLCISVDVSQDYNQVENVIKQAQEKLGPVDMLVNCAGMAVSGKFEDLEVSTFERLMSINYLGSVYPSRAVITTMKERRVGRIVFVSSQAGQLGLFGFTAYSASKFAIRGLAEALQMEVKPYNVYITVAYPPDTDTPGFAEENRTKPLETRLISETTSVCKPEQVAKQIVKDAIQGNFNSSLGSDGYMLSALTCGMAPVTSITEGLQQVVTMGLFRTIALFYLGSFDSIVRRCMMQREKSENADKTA
UniProt Q15046, whole entry, looked up: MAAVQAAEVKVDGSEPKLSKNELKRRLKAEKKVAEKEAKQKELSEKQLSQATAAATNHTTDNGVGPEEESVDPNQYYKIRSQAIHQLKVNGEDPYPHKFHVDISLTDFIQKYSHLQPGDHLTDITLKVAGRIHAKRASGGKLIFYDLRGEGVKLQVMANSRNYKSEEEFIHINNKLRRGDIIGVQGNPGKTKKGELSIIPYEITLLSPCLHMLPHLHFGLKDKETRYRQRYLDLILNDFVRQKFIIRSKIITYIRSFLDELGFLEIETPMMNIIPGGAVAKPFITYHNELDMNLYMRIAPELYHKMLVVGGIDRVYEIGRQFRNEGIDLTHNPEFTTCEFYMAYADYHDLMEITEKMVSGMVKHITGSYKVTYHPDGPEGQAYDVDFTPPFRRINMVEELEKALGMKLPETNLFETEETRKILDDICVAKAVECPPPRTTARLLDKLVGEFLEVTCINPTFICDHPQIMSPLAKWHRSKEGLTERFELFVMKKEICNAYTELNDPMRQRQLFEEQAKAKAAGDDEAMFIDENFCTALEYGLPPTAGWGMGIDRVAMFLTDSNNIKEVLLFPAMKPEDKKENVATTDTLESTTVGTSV
UniProt Q14681: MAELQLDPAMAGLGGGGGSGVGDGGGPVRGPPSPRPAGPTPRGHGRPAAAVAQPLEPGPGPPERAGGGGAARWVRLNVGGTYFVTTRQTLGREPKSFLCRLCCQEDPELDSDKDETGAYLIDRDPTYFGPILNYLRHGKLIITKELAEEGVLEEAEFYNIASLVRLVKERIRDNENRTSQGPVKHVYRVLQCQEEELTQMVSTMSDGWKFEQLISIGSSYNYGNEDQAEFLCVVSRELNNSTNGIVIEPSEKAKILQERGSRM
UniProt Q9NXV2: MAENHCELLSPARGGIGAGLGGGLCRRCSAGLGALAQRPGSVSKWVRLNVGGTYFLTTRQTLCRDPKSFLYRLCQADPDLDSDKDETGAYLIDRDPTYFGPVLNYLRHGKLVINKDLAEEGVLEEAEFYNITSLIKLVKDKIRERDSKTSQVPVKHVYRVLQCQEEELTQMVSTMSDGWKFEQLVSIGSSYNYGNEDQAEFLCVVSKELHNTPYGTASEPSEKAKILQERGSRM
UniProt Q9ULH0: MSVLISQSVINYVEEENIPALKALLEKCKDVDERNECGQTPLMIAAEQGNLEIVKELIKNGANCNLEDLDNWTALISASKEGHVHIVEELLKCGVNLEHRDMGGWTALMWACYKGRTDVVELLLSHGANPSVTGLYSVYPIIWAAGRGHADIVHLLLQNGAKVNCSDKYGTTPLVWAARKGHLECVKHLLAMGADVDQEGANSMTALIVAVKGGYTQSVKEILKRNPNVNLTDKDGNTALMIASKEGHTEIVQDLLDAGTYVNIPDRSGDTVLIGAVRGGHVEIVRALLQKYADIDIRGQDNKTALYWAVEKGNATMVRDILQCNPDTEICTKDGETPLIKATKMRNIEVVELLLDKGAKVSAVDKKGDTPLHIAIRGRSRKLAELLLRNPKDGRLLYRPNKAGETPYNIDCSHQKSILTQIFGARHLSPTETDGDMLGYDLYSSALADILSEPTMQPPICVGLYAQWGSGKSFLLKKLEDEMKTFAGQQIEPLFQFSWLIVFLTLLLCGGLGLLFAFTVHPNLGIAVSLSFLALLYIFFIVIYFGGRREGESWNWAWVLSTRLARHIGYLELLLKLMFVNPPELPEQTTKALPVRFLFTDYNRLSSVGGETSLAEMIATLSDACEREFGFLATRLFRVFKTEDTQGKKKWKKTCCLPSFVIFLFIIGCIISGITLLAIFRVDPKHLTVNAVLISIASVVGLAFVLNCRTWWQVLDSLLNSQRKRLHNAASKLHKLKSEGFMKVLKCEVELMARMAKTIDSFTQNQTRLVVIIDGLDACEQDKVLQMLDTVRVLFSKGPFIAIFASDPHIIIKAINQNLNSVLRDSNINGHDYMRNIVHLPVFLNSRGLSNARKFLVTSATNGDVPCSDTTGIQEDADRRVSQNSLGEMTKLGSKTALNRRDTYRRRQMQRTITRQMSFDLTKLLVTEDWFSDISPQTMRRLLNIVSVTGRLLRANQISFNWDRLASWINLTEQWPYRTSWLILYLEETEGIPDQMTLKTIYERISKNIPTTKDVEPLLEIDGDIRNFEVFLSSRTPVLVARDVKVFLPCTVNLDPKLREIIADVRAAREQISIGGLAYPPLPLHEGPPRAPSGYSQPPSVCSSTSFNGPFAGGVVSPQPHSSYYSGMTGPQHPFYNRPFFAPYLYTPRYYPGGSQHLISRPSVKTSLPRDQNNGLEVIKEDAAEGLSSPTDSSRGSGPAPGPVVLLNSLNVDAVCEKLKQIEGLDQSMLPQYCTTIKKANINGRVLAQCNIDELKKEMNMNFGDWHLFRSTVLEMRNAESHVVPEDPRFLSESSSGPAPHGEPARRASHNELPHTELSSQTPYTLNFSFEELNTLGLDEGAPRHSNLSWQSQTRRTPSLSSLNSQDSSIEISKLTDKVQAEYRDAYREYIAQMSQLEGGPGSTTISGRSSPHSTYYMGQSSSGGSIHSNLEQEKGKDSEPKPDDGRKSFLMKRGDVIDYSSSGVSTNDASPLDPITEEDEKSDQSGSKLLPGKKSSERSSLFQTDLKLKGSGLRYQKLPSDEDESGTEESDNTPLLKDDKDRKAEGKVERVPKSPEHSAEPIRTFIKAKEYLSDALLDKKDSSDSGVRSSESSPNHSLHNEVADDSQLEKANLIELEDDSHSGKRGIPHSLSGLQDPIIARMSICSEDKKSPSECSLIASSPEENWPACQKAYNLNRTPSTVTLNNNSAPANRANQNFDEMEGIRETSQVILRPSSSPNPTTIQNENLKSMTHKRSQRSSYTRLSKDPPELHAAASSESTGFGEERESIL
UniProt P23276: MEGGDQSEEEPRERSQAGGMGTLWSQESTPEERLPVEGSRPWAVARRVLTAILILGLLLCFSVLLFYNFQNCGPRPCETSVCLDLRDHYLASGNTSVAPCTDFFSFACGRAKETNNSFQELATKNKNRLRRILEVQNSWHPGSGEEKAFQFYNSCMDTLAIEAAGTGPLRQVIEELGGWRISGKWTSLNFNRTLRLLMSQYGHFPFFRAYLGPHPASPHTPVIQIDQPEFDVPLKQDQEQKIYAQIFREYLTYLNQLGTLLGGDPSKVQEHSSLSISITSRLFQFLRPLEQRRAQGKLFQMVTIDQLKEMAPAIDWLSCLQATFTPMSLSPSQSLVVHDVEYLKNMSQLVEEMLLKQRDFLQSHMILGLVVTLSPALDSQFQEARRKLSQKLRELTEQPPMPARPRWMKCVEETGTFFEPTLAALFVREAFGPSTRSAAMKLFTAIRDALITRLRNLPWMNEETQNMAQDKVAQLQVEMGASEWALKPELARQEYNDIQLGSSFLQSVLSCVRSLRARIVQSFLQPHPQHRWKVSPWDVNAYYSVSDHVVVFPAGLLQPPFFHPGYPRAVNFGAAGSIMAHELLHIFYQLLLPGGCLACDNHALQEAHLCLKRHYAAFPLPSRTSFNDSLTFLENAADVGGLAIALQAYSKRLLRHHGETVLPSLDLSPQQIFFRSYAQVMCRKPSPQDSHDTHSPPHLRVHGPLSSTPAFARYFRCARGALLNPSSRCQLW
UniProt Q9P0J7: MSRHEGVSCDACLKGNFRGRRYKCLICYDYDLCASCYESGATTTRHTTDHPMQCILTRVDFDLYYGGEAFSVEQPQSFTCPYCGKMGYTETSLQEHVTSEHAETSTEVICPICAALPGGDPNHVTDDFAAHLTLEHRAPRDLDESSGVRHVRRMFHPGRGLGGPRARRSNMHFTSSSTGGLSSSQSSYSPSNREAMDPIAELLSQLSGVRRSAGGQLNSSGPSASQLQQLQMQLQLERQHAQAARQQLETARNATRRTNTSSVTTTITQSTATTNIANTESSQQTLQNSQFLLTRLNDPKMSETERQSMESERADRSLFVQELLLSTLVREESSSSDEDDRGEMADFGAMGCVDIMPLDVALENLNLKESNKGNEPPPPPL
UniProt P33947: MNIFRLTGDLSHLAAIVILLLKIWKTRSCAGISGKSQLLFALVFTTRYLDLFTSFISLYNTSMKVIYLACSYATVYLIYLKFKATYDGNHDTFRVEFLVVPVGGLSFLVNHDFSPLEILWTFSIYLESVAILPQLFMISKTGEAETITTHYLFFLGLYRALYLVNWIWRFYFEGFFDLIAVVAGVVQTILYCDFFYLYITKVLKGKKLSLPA

Key:
Assay in all cases: log2 fold change, soluble protein after heating vs DMSO (PISA); higher = thermal stabilisation; K562 cells, 10 uM, 30 min; active = over 0.2 and 3.5 SD of the protein, either way, in both replicates (recomputed)
[1] = compound: NC(=O)Nc1cc(-c2cccc(F)c2)sc1C(=O)N[C@H]1CCCNC1
Outline: (§1)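 K562 cells (2×10^6 cells/mL) were treated with 10 μM compound for 30 min, and aliquots were heated for 3 min over 48°C-58°C. Pooled aliquots were extracted in PBS with 0.5% NP-40 at 4°C, and the supernatant after 21,000xg for 90 min was measured by TMTpro 16plex LC-MS/MS with channel sums equalised. Reported thermal stability, relative to control samples and from duplicates, is a log2 fold change.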

[2] = compound: NC(=O)c1cnc(N[C@@H]2CCCC[C@@H]2N)nc1Nc1cccc(-n2nccn2)c1
Outline: as §1

[3] = compound: NC1(c2ccc(-c3nc4ccn5c(=O)[nH]nc5c4cc3-c3ccccc3)cc2)CCC1
Outline: as §1

[4] = compound: NCC(=O)Nc1ccc(-n2nc(C(F)(F)F)cc2-c2ccc3c(ccc4ccccc43)c2)cc1
Outline: as §1

[5] = compound: Nc1ccccc1NC(=O)c1ccc(CNC(=O)OCc2cccnc2)cc1 [entinostat]
Outline: as §1

[6] = compound: O=C(CCCCCCC(=O)Nc1ccccc1)NO [vorinostat]
Outline: as §1

[7] = compound: O=C(CCCCCCNC(=O)c1cnc(N(c2ccccc2)c2ccccc2Cl)nc1)NO [citarinostat]
Outline: as §1

[8] = compound: O=C(O)c1ccc2c(c1)nc(Nc1cccc(Cl)c1)c1ccncc12 [silmitasertib]
Outline: as §1

[9] = compound: O=C1NC(=O)C(c2cnc3ccccn23)=C1c1cn2c3c(cc(F)cc13)CN(C(=O)N1CCCCC1)CC2
Outline: as §1

[10] = compound: c1cc(OCCN2CCCCC2)cc(-c2n[nH]c3ccc(-c4nnc[nH]4)cc23)c1
Outline: as §1

Measured: log2 fold change

KNSTRN (UniProt Q9Y448)
inactive: [1] -0.005 | [2] -0.078 | [3] 0.057 | [4] 0.008 | [5] 0.084 | [6] 0.015 | [7] 0.022 | [8] 0.112 | [9] 0.164 | [10] -0.102

KLHL11 (UniProt Q9NVR0)
inactive: [1] 0.095 | [2] -0.168 | [3] -0.1 | [4] -0.046 | [5] -0.009 | [6] -0.024 | [7] 0.195 | [8] 0.059 | [9] -0.002 | [10] 0.008

KLC1 isoform 6 (UniProt Q07866)
inactive: [1] -0.04 | [2] -0.046 | [3] -0.079 | [4] -0.051 | [5] 0.027 | [6] 0.015 | [7] 0.035 | [8] 0.02 | [9] -0.015 | [10] -0.065

KIF2A isoform 4 (UniProt O00139)
inactive: [1] 0.031 | [2] 0.003 | [3] 0.092 | [4] 0.018 | [5] 0 | [6] -0.043 | [7] -0.036 | [8] 0.11 | [9] 0.159 | [10] -0.149

KCTD3 (UniProt Q9Y597)
inactive: [1] -0.064 | [2] -0.027 | [3] 0.003 | [4] -0.037 | [5] -0.117 | [6] 0 | [7] -0.06 | [8] 0.001 | [9] 0.007 | [10] -0.052

KPNA2 (UniProt P52292)
inactive: [1] 0.088 | [2] 0.026 | [3] 0.266 | [4] 0.062 | [5] 0.085 | [6] 0.191 | [7] 0.024 | [8] 0.172 | [9] 0.271 | [10] -0.114

KIF5A (UniProt Q12840)
inactive: [1] -0.073 | [2] -0.019 | [3] -0.067 | [4] -0.006 | [5] -0.005 | [6] 0.026 | [7] -0.008 | [8] 0.025 | [9] 0.007 | [10] -0.038

KDM1A isoform 2 (UniProt O60341)
inactive: [1] 0.055 | [2] -0.038 | [3] -0.063 | [4] 0.012 | [5] 0.155 | [6] 0.135 | [7] 0.007 | [8] 0 | [9] -0.063 | [10] -0.064

JMJD6 isoform 3 (UniProt Q6NYC1)
inactive: [1] 0.01 | [2] -0.057 | [3] -0.068 | [4] -0.019 | [5] 0.039 | [6] 0.048 | [7] 0.064 | [8] 0.081 | [9] -0.061 | [10] -0.014

Two records picked at random from those above, as already listed:
JMJD6 isoform 3 (UniProt Q6NYC1)
inactive: [1] 0.01 | [2] -0.057 | [3] -0.068 | [4] -0.019 | [5] 0.039 | [6] 0.048 | [7] 0.064 | [8] 0.081 | [9] -0.061 | [10] -0.014

KIF2A isoform 4 (UniProt O00139)
inactive: [1] 0.031 | [2] 0.003 | [3] 0.092 | [4] 0.018 | [5] 0 | [6] -0.043 | [7] -0.036 | [8] 0.11 | [9] 0.159 | [10] -0.149

More records follow.

KBTBD8 (UniProt Q8NFY9)
inactive: [1] 0.022 | [2] 0.075 | [3] -0.116 | [4] -0.016 | [5] 0.108 | [6] 0.17 | [7] 0.05 | [8] 0.187 | [9] 0.153 | [10] 0.007

KPNA6 (UniProt O60684)
inactive: [1] 0.01 | [2] -0.007 | [3] -0.06 | [4] -0.002 | [5] 0.051 | [6] 0.061 | [7] 0.047 | [8] 0.219 | [9] 0.067 | [10] -0.159

KIF5B (UniProt P33176)
inactive: [1] -0.058 | [2] -0.026 | [3] -0.068 | [4] -0.022 | [5] 0.021 | [6] 0.002 | [7] 0.028 | [8] 0.006 | [9] 0.022 | [10] -0.015

KHK isoform 2 (UniProt P50053)
inactive: [1] -0.012 | [2] 0.058 | [3] -0.081 | [4] -0.004 | [5] -0.06 | [6] -0.017 | [7] 0.045 | [8] 0.01 | [9] -0.087 | [10] 0.004

KRAS isoform 2 (UniProt P01116)
inactive: [1] -0.07 | [2] 0.039 | [3] 0.091 | [4] 0.061 | [5] -0.015 | [6] -0.032 | [7] -0.018 | [8] 0.001 | [9] -0.019 | [10] -0.032

KLC4 isoform 3 (UniProt Q9NSK0)
inactive: [1] -0.031 | [2] 0.028 | [3] -0.06 | [4] -0.03 | [5] 0.08 | [6] -0.011 | [7] 0.086 | [8] 0.063 | [9] -0.002 | [10] 0.036

KDSR (UniProt Q06136)
inactive: [1] 0.022 | [2] -0.007 | [3] -0.031 | [4] 0.012 | [5] -0.034 | [6] -0.027 | [7] 0.03 | [8] -0.003 | [9] 0.018 | [10] 0.035

KBTBD2 (UniProt Q8IY47)
inactive: [1] 0.021 | [2] 0.022 | [3] -0.135 | [4] -0.027 | [5] -0.041 | [6] 0.006 | [7] 0.051 | [8] 0.018 | [9] -0.102 | [10] -0.027

KARS1 (UniProt Q15046)
inactive: [1] 0.075 | [2] 0.065 | [3] 0.147 | [4] 0.07 | [5] -0.042 | [6] 0.059 | [7] -0.075 | [8] 0.124 | [9] 0.222 | [10] -0.145

KIF3B (UniProt O15066)
inactive: [1] -0.016 | [2] -0.029 | [3] -0.091 | [4] -0.128 | [5] -0.016 | [6] -0.179 | [7] 0.053 | [8] -0.086 | [9] -0.112 | [10] 0.215

KIAA1191 (UniProt Q96A73)
inactive: [1] -0.026 | [2] -0.023 | [3] 0.035 | [4] 0.029 | [5] 0.037 | [6] 0.037 | [7] 0.098 | [8] 0.063 | [9] -0.118 | [10] 0.024

KCTD2 (UniProt Q14681)
inactive: [1] -0.524 | [2] -0.195 | [3] 0.032 | [4] -0.119 | [5] -0.35 | [6] -0.543 | [7] -0.274 | [8] 0.119 | [9] -0.121 | [10] -0.204

KCTD5 (UniProt Q9NXV2)
inactive: [1] -0.181 | [2] -0.09 | [3] 0.088 | [4] -0.009 | [5] -0.05 | [6] -0.113 | [7] 0.033 | [8] 0.019 | [9] -0.091 | [10] -0.134

KIF15 (UniProt Q9NS87)
inactive: [1] 0.046 | [2] -0.083 | [3] 0.049 | [4] -0.067 | [5] -0.057 | [6] 0.128 | [7] 0.041 | [8] 0.082 | [9] 0.282 | [10] -0.107

KIDINS220 (UniProt Q9ULH0)
inactive: [1] -0.036 | [2] 0.021 | [3] -0.001 | [4] -0.003 | [5] -0.013 | [6] -0.038 | [7] -0.018 | [8] -0.008 | [9] 0 | [10] -0.033

KEL (UniProt P23276)
inactive: [1] -0.004 | [2] 0.088 | [3] -0.215 | [4] 0.017 | [5] -0.022 | [6] 0.03 | [7] 0.019 | [8] 0.108 | [9] 0.115 | [10] -0.001

KCMF1 (UniProt Q9P0J7)
inactive: [1] 0.093 | [2] 0.06 | [3] -0.077 | [4] 0.07 | [5] 0.121 | [6] 0.122 | [7] 0.034 | [8] 0.047 | [9] 0.002 | [10] -0.049

IVNS1ABP (UniProt Q9Y6Y0)
inactive: [1] -0.098 | [2] 0.019 | [3] -0.031 | [4] -0.01 | [5] -0.058 | [6] 0.136 | [7] 0.01 | [8] 0.043 | [9] 0.037 | [10] 0.032

KDELR2 (UniProt P33947)
inactive: [1] -0.071 | [2] 0.063 | [3] -0.073 | [4] -0.133 | [5] -0.02 | [6] -0.238 | [7] -0.026 | [8] -0.018 | [9] -0.031 | [10] -0.097

KIF3A (UniProt Q9Y496)
inactive: [1] 0.075 | [2] 0.078 | [3] -0.011 | [4] -0.014 | [5] -0.011 | [6] -0.137 | [7] -0.076 | [8] -0.068 | [9] -0.048 | [10] -0.051
